Source: patent US12441768B2, “Compositions and methods for treating endometriosis” (EndoMet Biosciences, Inc., priority 2018, dated 2025)
At least one peptide structure holds a part that was inferred or is arguable (an end, a ring closure or a residue). At least one compound was matched to its structure with a doubt left. Where a SMILES comes first, the peptide text is derived from it.

Biological target: T1, β-catenin (Homo sapiens, UniProt P35222)
T1 sequence (P35222 1-781): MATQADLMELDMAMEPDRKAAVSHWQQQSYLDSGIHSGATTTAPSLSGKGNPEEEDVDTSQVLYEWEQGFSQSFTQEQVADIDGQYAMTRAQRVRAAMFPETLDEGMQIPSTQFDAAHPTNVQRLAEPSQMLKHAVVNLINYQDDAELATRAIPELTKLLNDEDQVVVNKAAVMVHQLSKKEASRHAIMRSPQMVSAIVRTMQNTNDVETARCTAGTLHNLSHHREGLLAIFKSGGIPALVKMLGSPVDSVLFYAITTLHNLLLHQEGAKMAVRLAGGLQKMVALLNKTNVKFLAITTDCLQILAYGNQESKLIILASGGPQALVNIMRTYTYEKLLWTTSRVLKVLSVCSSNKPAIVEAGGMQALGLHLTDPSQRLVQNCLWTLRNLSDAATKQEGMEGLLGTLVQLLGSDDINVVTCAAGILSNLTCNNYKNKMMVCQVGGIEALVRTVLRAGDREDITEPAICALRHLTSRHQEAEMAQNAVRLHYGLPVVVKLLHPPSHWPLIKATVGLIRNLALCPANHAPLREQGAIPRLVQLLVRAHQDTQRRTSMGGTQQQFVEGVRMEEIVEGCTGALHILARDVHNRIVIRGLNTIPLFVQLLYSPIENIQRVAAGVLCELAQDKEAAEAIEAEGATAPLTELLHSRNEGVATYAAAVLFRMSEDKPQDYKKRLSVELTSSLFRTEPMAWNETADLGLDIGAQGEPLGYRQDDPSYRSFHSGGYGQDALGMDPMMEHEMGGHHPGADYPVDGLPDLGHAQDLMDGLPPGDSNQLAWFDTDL
Test: KD50 measurement using competitive fluorescence polarization (FP) with labelled TCF4
Format: binding
Conditions: not given
Excerpt: Fluorescence polarization (FP) is another method used to analyze protein-ligand interactions. This methodology measures the change in fluorescence light emitted by a labelled compound free vs. conjugated to another compound in solution. Upon binding of the fluorescent molecule to a complex, polarization increases because of limited rotation of the fluorescent tracer. Competitive FP is often utilized in drug screens as it is formatted for high throughput screens in a plate format. This immunoassay is performed by introducing a non-conjugated drug to compete for binding to the labelled competitor-ligand complex, leading to a reduction in polarization. TCF4 protein is utilized for the competitive assay as (1) this protein influences the full activation of the Wnt pathway and (2) shares homology with the β-catenin inhibitors. Exemplary methodology is described in Example 13. Data were analyzed and plotted in Microsoft Excel (Microsoft, Redmond, WA).
5 nM of labelled TCF4 protein was added to solution of 100 nM of β-catenin and incubated at room temperature in 96-well plates (Greiner 96 Flat transparent plates, Millipore Sigma, Carlsbad CA). Varying concentrations of β-catenin inhibitor candidate (SEQ ID NO: 404) were then added in a series of serial dilutions from 10 nM to 30 uM of inhibitor in different wells of the plate. The fluorescence polarization was read by Infinite M1000 (Tecan, Baldwin Park CA) at excitation wavelength of 470 nm and measured at emission wavelength of 520 nm. […] The experiments were performed three times and data were analyzed and plotted in Microsoft Excel (Microsoft, Redmond, WA).

Compound	β-Cat FP Hill slope
CCCCCCCCC(=O)N[C@@H](Cc1c[nH]c2ccccc12)C(=O)N(C)[C@@H](C)C(=O)N[C@@H](CCC(N)=O)C(=O)N[C@H]1CCCCNC(=O)CC[C@@H](C(=O)N[C@@H](Cc2c[nH]cn2)C(=O)N[C@H](C(=O)N[C@@H](CCC(N)=O)C(=O)N[C@@H](CCCNC(=N)N)C(=O)N[C@H](C(=O)N[C@@H](Cc2c[nH]c3ccccc23)C(=O)NCC(N)=O)C(C)C)C(C)C)NC(=O)[C@H](CC(=O)O)NC(=O)[C@H](CC(C)C)NC(=O)[C@H](C2CCCCC2)NC1=O [compound 422] (HELM PEPTIDE1{[CCCCCCCCC(=O)[*:2]].W.[meA].Q.K.[O=C([C@@H](N[*:1])C1CCCCC1)[*:2]].L.D.E.H.V.Q.R.V.W.G.[am]}$PEPTIDE1,PEPTIDE1,5:R3-9:R3$$$V2.0)	0.7
CCCCCCCCC(=O)N[C@@H](Cc1c[nH]c2ccccc12)C(=O)N(C)[C@@H](C)C(=O)N[C@@H](CCC(N)=O)C(=O)N[C@H]1CCC(=O)NCCCC[C@@H](C(=O)N[C@@H](Cc2c[nH]cn2)C(=O)N[C@H](C(=O)N[C@@H](CCC(N)=O)C(=O)N[C@@H](CCCNC(=N)N)C(=O)N[C@H](C(=O)N[C@@H](Cc2c[nH]c3ccccc23)C(=O)NCC(N)=O)C(C)C)C2CCCCC2)NC(=O)[C@H](CC(=O)O)NC(=O)[C@H](CC(C)C)NC(=O)[C@H]([C@@H](C)CC)NC1=O [compound 427] (HELM PEPTIDE1{[CCCCCCCCC(=O)[*:2]].W.[meA].Q.E.I.L.D.K.H.[O=C([C@@H](N[*:1])C1CCCCC1)[*:2]].Q.R.V.W.G.[am]}$PEPTIDE1,PEPTIDE1,5:R3-9:R3$$$V2.0)	0.97
CCCCCCCCC(=O)N[C@@H](Cc1c[nH]c2ccccc12)C(=O)N(C)[C@@H](C)C(=O)N[C@@H](CCC(N)=O)C(=O)N[C@H]1CCCNC(=O)CC[C@@H](C(=O)N[C@@H](Cc2c[nH]cn2)C(=O)N[C@H](C(=O)N[C@@H](CCC(N)=O)C(=O)N[C@@H](CCCNC(=N)N)C(=O)N[C@H](C(=O)N[C@@H](Cc2c[nH]c3ccccc23)C(=O)NCC(N)=O)C(C)C)C2CCCCC2)NC(=O)[C@H](CC(=O)O)NC(=O)[C@H](CC(C)C)NC(=O)[C@H]([C@@H](C)CC)NC1=O [compound 425] (HELM PEPTIDE1{[CCCCCCCCC(=O)[*:2]].W.[meA].Q.[Orn].I.L.D.E.H.[O=C([C@@H](N[*:1])C1CCCCC1)[*:2]].Q.R.V.W.G.[am]}$PEPTIDE1,PEPTIDE1,5:R3-9:R3$$$V2.0)	0.7

Same assay, conditions: read-out: β-Cat FP KD

Compound	Kd [nM]
CC[C@H](C)[C@@H]1NC(=O)[C@@H](NC(=O)[C@H](CCC(N)=O)NC(=O)[C@H](C)N(C)C(=O)[C@H](Cc2c[nH]c3ccccc23)NC(C)=O)CCCCNC(=O)CC[C@@H](C(=O)N[C@@H](Cc2c[nH]cn2)C(=O)N[C@H](C(=O)N[C@H]2CCC(=O)NCCCC[C@@H](C(N)=O)NC(=O)[C@H](Cc3c[nH]c4ccccc34)NC(=O)[C@H](C(C)C)NC(=O)[C@H](CC(=O)O)NC2=O)C2CCCCC2)NC(=O)[C@H](CC(=O)O)NC(=O)[C@H](CC(C)C)NC1=O [compound 464] (HELM PEPTIDE1{[ac].W.[meA].Q.K.I.L.D.E.H.[O=C([C@@H](N[*:1])C1CCCCC1)[*:2]].E.D.V.W.K.[am]}$PEPTIDE1,PEPTIDE1,5:R3-9:R3|PEPTIDE1,PEPTIDE1,12:R3-16:R3$$$V2.0; bridges inferred)	400 to 1000
CC[C@H](C)[C@H](NC(=O)[C@H](CC(C)C)NC(=O)[C@H](Cc1ccccc1)NC(=O)[C@H](Cc1c[nH]c2ccccc12)NC(=O)[C@@H](N)CCSC)C(=O)N[C@@H](CS)C(=O)N[C@@H](Cc1cncn1C)C(=O)N[C@@H](Cc1c[nH]c2ccccc12)C(=O)NCC(=O)O [compound 135] (HELM PEPTIDE1{M.W.F.L.I.C.[Cn1cncc1C[C@H](N[*:1])C(=O)[*:2]].W.G}$$$$V2.0)	1000 to 10000
CC[C@H](C)[C@@H]1NC(=O)[C@H](CC(C)C)NC(=O)[C@H](Cc2ccccc2)NC(=O)[C@H](Cc2c[nH]c3ccccc23)NC(=O)[C@@H](N)CCCCNC(=O)CC[C@@H](C(=O)N[C@@H](Cc2c[nH]c3ccccc23)C(=O)NCC(=O)O)NC(=O)[C@H](CS)NC1=O [compound 173] (HELM PEPTIDE1{K.W.F.L.I.C.E.W.G}$PEPTIDE1,PEPTIDE1,1:R3-7:R3$$$V2.0)	1000 to 10000
CCCC[C@@H]1NC(=O)[C@@H](NC(C)=O)CCCCNC(=O)C[C@@H](C(=O)O)NC(=O)[C@H](Cc2c[nH]c3ccccc23)NC(=O)[C@H](C)NC(=O)[C@H](CC)NC(=O)[C@H]([C@@H](C)CC)NC(=O)[C@H](CC(C)C)NC(=O)[C@H](CC2CCCCC2)NC(=O)[C@H](Cc2c[nH]c3ccccc23)NC1=O [SEQ ID NO: 215, Cyclo-Ac-K*Nle-W-Cha-LI-Abu-AWD*-COOH] (HELM PEPTIDE1{[ac].K.[Nle].W.[Cha].L.I.[Abu].A.W.D}$PEPTIDE1,PEPTIDE1,2:R3-11:R3$$$V2.0)	< 400
CCCCCCCC(=O)N[C@@H](Cc1c[nH]c2ccccc12)C(=O)N(C)[C@@H](C)C(=O)N[C@@H](CCC(N)=O)C(=O)N[C@H]1CCCCNC(=O)CC[C@@H](C(=O)N[C@@H](Cc2c[nH]cn2)C(=O)N[C@H](C(=O)N[C@@H](CCC(N)=O)C(=O)N[C@@H](CCCNC(=N)N)C(=O)N[C@H](C(=O)N[C@@H](Cc2c[nH]c3ccccc23)C(=O)NCC(N)=O)C(C)C)C(C)C)NC(=O)[C@H](CC(=O)O)NC(=O)[C@H](CC2CCCCC2)NC(=O)[C@H]([C@@H](C)CC)NC1=O [compound 409] (HELM PEPTIDE1{[CCCCCCCC(=O)[*:2]].W.[meA].Q.K.I.[Cha].D.E.H.V.Q.R.V.W.G.[am]}$PEPTIDE1,PEPTIDE1,5:R3-9:R3$$$V2.0)	> 30000
CC[C@H](C)[C@H](NC(=O)[C@H](CC(C)C)NC(=O)[C@@H](NC(=O)[C@H](Cc1c[nH]c2ccccc12)NC(=O)[C@H](CCSC)NCc1ccccc1)[C@@H](C)CC)C(=O)N[C@@H](CO)C(=O)N[C@@H](Cc1ccccc1)C(=O)N[C@@H](Cc1c[nH]c2ccccc12)C(=O)NCC(=O)O [compound 223] (HELM PEPTIDE1{[CSCC[C@H](NCc1ccccc1)C(=O)[*:2]].W.I.L.I.S.F.W.G}$$$$V2.0)	< 400
CCCCCCCCCCCC(=O)N[C@@H](Cc1c[nH]c2ccccc12)C(=O)N(C)[C@@H](C)C(=O)N[C@@H](CCC(N)=O)C(=O)N[C@H]1CCCCNC(=O)CC[C@@H](C(=O)N[C@@H](Cc2c[nH]cn2)C(=O)N[C@H](C(=O)N[C@H]2CCC(=O)NCCCC[C@@H](C(N)=O)NC(=O)[C@H](Cc3c[nH]c4ccccc34)NC(=O)[C@H](C(C)C)NC(=O)[C@H](CC(=O)O)NC2=O)C2CCCCC2)NC(=O)[C@H](CC(=O)O)NC(=O)[C@H](CC(C)C)NC(=O)[C@H]([C@@H](C)CC)NC1=O [compound 465] (HELM PEPTIDE1{[CCCCCCCCCCCC(=O)[*:2]].W.[meA].Q.K.I.L.D.E.H.[O=C([C@@H](N[*:1])C1CCCCC1)[*:2]].E.D.V.W.K.[am]}$PEPTIDE1,PEPTIDE1,5:R3-9:R3|PEPTIDE1,PEPTIDE1,12:R3-16:R3$$$V2.0; bridges inferred)	400 to 1000
CC[C@H](C)[C@@H]1NC(=O)[C@H](CC(C)C)NC(=O)[C@H](Cc2ccccc2)NC(=O)[C@H](Cc2c[nH]c3ccccc23)NC(=O)[C@@H](N)CCCCNC(=O)CN(CC(=O)O)C(=O)[C@H](Cc2c[nH]c3ccccc23)NC(=O)[C@H](C)NC(=O)[C@H](CS)NC1=O [compound 284]	1000 to 10000
CC[C@H](C)[C@@H]1NC(=O)[C@H](CC(C)C)NC(=O)[C@H](Cc2ccccc2)NC(=O)[C@H](Cc2c[nH]c3ccccc23)NC(=O)[C@@H](N)CCCCNC(=O)CC[C@@H](C(=O)N[C@@H](Cc2c[nH]c3ccccc23)C(=O)NCC(=O)O)NC(=O)[C@H](CS)NC1=O [compound 181] (HELM PEPTIDE1{K.W.F.L.I.C.E.W.G}$PEPTIDE1,PEPTIDE1,1:R3-7:R3$$$V2.0)	400 to 1000
CC[C@H](C)[C@H](NC(=O)[C@H](CC(C)C)NC(=O)[C@H](Cc1ccccc1)NC(=O)[C@H](Cc1c[nH]c2ccccc12)NC(=O)[C@@H](N)CCSC)C(=O)N[C@@H](CS)C(=O)N[C@@H](Cc1cn(C)cn1)C(=O)N[C@@H](Cc1c[nH]c2ccccc12)C(=O)NCC(=O)O [compound 140] (HELM PEPTIDE1{M.W.F.L.I.C.[Cn1cnc(C[C@H](N[*:1])C(=O)[*:2])c1].W.G}$$$$V2.0)	1000 to 10000
